Patent US20080221057A1, “SECRETED PROTEIN CCDC80 REGULATES ADIPOCYTE DIFFERENTIATION” (Wyeth, priority 2007, published 2008)
At least one structure is not confirmed: it was looked up by name or label, or the drawing left a doubt.

Experiments:
3T3-L1 cells [1] = assay: mRNA expression of genes involved in adipogenesis, metabolism and signaling in 3T3-L1 cells (microarray, real-time PCR); type: cell-based, mouse; settings: 100 nM rosiglitazone with adipogenic inducers
Method: RNA from undifferentiated and differentiated 3T3-L1 adipocytes, tissues from normal, 8- to 12-week-old male C57BL/6J mice, as well as tissues from 10-week-old male ob/ob and age-matched wild-type control mice, was obtained as described (Lake et al., J. Lipid Res 46:2477-2487, 2005). For thiazolidinedione (TZD) treatment, 10-week-old male ob/ob mice were gavaged once per day with 15 mg/kg rosiglitazone or vehicle for 21 days. Primary adipocytes and stromal vascular fraction were prepared from the epididymal adipose tissue of 8- to 12-week-old male C57BL/6J mice as described (Lake et al., J. Lipid Res 46:2477-2487, 2005). Total RNA was extracted using Trizol (Invitrogen) and purified using the RNeasy kit (Qiagen). RNA from human tissues was obtained from Clontech (Mountain View, Calif.). Gene expression profiling was performed using the Mouse Genome 430 2.0 array (Affymetrix) as previously described (Berasi et al., J. Biol. Chem. 281:27167-27177, 2006). Gene expression was also measured by real-time PCR. (n=3-6 mice per group)*p<0.05. Taqman real-time quantitative PCR was performed on a 7900HT fast real-time PCR system (Applied Biosystems) according to the manufacturer's instructions using 18S as an endogenous control as described before (Lake et al., J. Lipid Res 46:2477-2487, 2005). Pre-designed gene-specific primers and probes were obtained from Applied Biosystems. […]

Ccdc80 mRNA [2] = assay: Ccdc80 mRNA expression in white adipose tissue of ob/ob mice, real-time PCR; type: in vivo, mouse; settings: obese ob/ob mice; 15 mg/kg gavaged once per day for 21 days; vs vehicle
3T3-L1 cells [3] = assay: 3T3-L1 adipocyte differentiation, lipid accumulation by oil red O staining; type: cell-based, mouse; settings: data not shown
Method: 3T3-L1 cells were maintained in DMEM containing 20% calf serum in an atmosphere of 10% CO2 at 37° C. Two days post-confluence, cells were induced to differentiate into adipocyte using DMEM containing 10% FBS supplemented with 500 μM 3-isobutyl-1-methylxanthine, 1 μM dexamethasone and 1.7 μM insulin for 4 days, followed by DMEM containing 10% FBS and 0.85 μM insulin for 2 days, then DMEM containing only 10% FBS for an additional 2-4 days. Neutral lipid accumulation in formalin-fixed adipocytes was determined by oil red O staining according to methods well known in the art.

[4] = Treatment of ob/ob mice, a genetic model of obesity and type 2 diabetes; type: in vivo, mouse
Ccdc80 mRNA [5] = assay: Ccdc80 mRNA expression in growth-arrested 3T3-L1 cells treated with adipogenic inducers, real-time PCR; type: cell-based, mouse; settings: growth-arrested 3T3-L1 cells treated with one or more adipogenic inducers for 96 hr
Method: RNA from undifferentiated and differentiated 3T3-L1 adipocytes, tissues from normal, 8- to 12-week-old male C57BL/6J mice, as well as tissues from 10-week-old male ob/ob and age-matched wild-type control mice, was obtained as described (Lake et al., J. Lipid Res 46:2477-2487, 2005). For thiazolidinedione (TZD) treatment, 10-week-old male ob/ob mice were gavaged once per day with 15 mg/kg rosiglitazone or vehicle for 21 days. Primary adipocytes and stromal vascular fraction were prepared from the epididymal adipose tissue of 8- to 12-week-old male C57BL/6J mice as described (Lake et al., J. Lipid Res 46:2477-2487, 2005). Total RNA was extracted using Trizol (Invitrogen) and purified using the RNeasy kit (Qiagen). RNA from human tissues was obtained from Clontech (Mountain View, Calif.). […] Biol. Chem. 281:27167-27177, 2006). Gene expression was also measured by real-time PCR. (n=3-6 mice per group)*p<0.05. Taqman real-time quantitative PCR was performed on a 7900HT fast real-time PCR system (Applied Biosystems) according to the manufacturer's instructions using 18S as an endogenous control as described before (Lake et al., J. Lipid Res 46:2477-2487, 2005). Pre-designed gene-specific primers and probes were obtained from Applied Biosystems. […] Neutral lipid accumulation in formalin-fixed adipocytes was determined by oil red O staining according to methods well known in the art.

| Structure (SMILES) | expression of C/EBPα and PPARγ in Ccdc80-KD cells (3T3-L1 cells [1]) | Ccdc80 mRNA levels in WAT (Ccdc80 mRNA [2]) | adipogenesis and lipid accumulation of Ccdc80-KD cells (3T3-L1 cells [3]; 100 nM added with adipogenic inducers) | lipid accumulation of Ccdc80-overexpressing cells (3T3-L1 cells [3]; adenovirus MOI 2000, 100 nM rosiglitazone from the beginning of clonal expansion, vs -TZD) | diabetes of ob/ob mice [4] | Ccdc80 mRNA levels (Ccdc80 mRNA [5]) |
| --- | --- | --- | --- | --- | --- | --- |
| CN(CCOc1ccc(CC2SC(=O)NC2=O)cc1)c1ccccn1 (stereo not drawn) [rosiglitazone] | not associated with restored expression | restored to normal level | almost fully prevent the defective adipogenesis and lipid accumulation | significantly increased the ability of Ccdc80-overexpressing cells to accumulate lipids | improves | – |
| C[C@@H]1C[C@H]2[C@@H]3CCC4=CC(=O)C=C[C@]4(C)[C@@]3(F)[C@@H](O)C[C@]2(C)[C@@]1(O)C(=O)CO [dexamethasone] | – | – | – | – | – | significantly reduce |
